Drawing on publication PMC7655986, this text covers binding for five molecules.

Experiment [1] addresses T1, recombinant Fc-construct of the Dsg3 extracellular domain (UniProt P32926).
T1 sequence: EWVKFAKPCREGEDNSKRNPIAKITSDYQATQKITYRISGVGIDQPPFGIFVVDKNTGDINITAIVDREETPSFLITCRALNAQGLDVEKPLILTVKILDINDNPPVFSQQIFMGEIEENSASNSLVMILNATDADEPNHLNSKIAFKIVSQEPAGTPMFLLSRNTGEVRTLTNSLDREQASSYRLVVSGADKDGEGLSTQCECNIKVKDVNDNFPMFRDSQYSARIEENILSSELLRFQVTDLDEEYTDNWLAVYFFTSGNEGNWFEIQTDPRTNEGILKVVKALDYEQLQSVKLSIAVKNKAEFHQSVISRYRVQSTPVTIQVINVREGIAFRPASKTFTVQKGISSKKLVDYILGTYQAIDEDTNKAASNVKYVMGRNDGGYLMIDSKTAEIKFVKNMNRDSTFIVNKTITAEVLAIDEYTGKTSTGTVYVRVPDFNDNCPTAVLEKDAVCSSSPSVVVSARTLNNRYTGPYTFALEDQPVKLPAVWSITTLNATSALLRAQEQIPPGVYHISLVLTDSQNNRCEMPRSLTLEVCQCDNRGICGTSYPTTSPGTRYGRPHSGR
As to the kind of experiment: atomic force microscopy (cell-free, inhibition by antibodies); Dsg-Fc constructs on tip and mica; binding frequencies with and without (ctr) incubation for 1 h of AK23, PV3-IgG or a monoclonal inhibitory anti-Dsg2 antibody; both purified.

The target of experiment [2] is T2, desmoglein 3 (Dsg3), endogenous in human keratinocytes (HaCaT) (human (endogenous in HaCaT)) (UniProt P32926).
T2 sequence: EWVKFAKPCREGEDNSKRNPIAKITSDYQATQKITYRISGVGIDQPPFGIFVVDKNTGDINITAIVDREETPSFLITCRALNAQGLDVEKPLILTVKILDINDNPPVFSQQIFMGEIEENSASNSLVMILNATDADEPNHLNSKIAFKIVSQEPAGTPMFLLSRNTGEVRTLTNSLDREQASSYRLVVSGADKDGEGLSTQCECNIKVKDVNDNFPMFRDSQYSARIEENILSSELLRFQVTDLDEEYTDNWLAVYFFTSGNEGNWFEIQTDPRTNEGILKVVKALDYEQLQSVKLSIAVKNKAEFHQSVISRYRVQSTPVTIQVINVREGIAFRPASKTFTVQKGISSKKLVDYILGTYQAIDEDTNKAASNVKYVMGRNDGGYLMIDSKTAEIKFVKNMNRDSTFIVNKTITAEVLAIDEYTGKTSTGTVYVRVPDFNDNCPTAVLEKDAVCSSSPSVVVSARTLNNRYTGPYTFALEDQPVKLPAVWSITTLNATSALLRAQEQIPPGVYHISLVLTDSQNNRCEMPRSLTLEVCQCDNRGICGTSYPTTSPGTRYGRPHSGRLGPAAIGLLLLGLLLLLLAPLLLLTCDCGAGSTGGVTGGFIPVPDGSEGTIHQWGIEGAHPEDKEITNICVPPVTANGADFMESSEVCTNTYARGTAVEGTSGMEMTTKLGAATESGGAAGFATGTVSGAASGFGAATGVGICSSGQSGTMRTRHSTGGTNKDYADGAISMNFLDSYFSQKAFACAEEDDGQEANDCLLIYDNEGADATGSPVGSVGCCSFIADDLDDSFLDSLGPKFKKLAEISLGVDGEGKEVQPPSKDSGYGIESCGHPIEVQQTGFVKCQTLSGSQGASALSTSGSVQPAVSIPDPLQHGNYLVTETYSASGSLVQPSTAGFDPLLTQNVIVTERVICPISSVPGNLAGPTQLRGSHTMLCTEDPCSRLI
As to the kind of experiment: co-IP; HaCaT lysates in RIPA buffer (50 mM Tris-HCl pH 8, 150 mM NaCl, 0.1% SDS, 1% NP-40, 1 mM EDTA); 1.5 µg polyclonal anti-Dsg3 or anti-Dsg2 antibody or rabbit ctr-IgG, 3 h at 4°C, A/G beads overnight; Western blot. Background: In western blotting, separated proteins are transferred to a membrane and probed.

For experiment [3], the target named is T2, desmoglein 3 (Dsg3), endogenous in human keratinocytes (HaCaT) (human (endogenous in HaCaT)). As to the kind of experiment: cross-linking + co-IP; HaCaT cells treated with the membrane-impermeable crosslinker DTSSP before lysis and immunoprecipitation.
The target of experiment [4] is T1, recombinant Fc-construct of the Dsg3 extracellular domain. As to the kind of experiment: atomic force microscopy (cell-free single-molecule force measurements); Dsg-Fc constructs (0.15 mg/ml) linked by a PEG linker to the cantilever tip and to mica sheets; Force Mapping mode; binding frequency and unbinding force; pulling speeds from 1 to 20 µm/s and modified Bells equation for the bond lifetime; 5 mM EGTA for 1 h lowered the binding frequency; both purified.

For experiment [5], the target named is T3, recombinant Fc-construct of the Dsg2 extracellular domain, Q14126.
T3 chain: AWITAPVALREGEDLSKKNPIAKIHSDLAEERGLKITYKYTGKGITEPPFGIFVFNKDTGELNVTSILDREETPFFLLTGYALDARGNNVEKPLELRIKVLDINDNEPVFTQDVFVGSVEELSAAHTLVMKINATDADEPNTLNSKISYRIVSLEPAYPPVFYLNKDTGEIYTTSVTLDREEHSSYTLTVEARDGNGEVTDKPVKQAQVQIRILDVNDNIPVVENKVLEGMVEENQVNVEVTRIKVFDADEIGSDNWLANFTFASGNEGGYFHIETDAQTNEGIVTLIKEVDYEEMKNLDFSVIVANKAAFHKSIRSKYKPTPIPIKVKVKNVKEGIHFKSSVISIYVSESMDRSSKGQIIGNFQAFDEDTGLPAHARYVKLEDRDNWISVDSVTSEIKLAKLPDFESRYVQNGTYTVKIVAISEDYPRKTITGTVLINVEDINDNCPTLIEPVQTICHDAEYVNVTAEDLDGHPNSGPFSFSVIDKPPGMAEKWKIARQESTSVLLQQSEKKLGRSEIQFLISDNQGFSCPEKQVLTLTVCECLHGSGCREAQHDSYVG
As to the kind of experiment: atomic force microscopy (cell-free, inhibition by antibodies); Dsg-Fc constructs on tip and mica; binding frequencies with and without (ctr) incubation for 1 h of AK23, PV3-IgG or a monoclonal inhibitory anti-Dsg2 antibody; both purified. To be noted: remark: other sources report otherwise.

The target of experiment [6] is desmoglein 2 (Dsg2), endogenous in human keratinocytes (HaCaT) (human (endogenous in HaCaT)) (UniProt Q14126). As to the kind of experiment: co-IP; HaCaT lysates in RIPA buffer (50 mM Tris-HCl pH 8, 150 mM NaCl, 0.1% SDS, 1% NP-40, 1 mM EDTA); 1.5 µg polyclonal anti-Dsg3 or anti-Dsg2 antibody or rabbit ctr-IgG, 3 h at 4°C, A/G beads overnight; Western blot.

No constants are given. Whether binding was seen depends on the method and setting. For some of these results: Binding seen in cells or lysates may run through a third protein. Some entries that bind do so weakly or less than the wild type. For some of these results: Where a sequence is shown, tags or fusion partners need not be part of it.

“recombinant Fc-construct of the Dsg2 extracellular domain (from UniProt Q14126 50-609) (Fc fusion)”: the binding entry in experiment [1] is recorded as “binds”.

“desmoglein 2 (Dsg2), endogenous in human keratinocytes (HaCaT) (from UniProt Q14126 50-1118)”: the binding entry in experiment [2] and in experiment [3] was “binds” throughout.

B1: recombinant Fc-construct of the Dsg3 extracellular domain (Fc fusion, UniProt P32926 50-615)
chain: EWVKFAKPCREGEDNSKRNPIAKITSDYQATQKITYRISGVGIDQPPFGIFVVDKNTGDINITAIVDREETPSFLITCRALNAQGLDVEKPLILTVKILDINDNPPVFSQQIFMGEIEENSASNSLVMILNATDADEPNHLNSKIAFKIVSQEPAGTPMFLLSRNTGEVRTLTNSLDREQASSYRLVVSGADKDGEGLSTQCECNIKVKDVNDNFPMFRDSQYSARIEENILSSELLRFQVTDLDEEYTDNWLAVYFFTSGNEGNWFEIQTDPRTNEGILKVVKALDYEQLQSVKLSIAVKNKAEFHQSVISRYRVQSTPVTIQVINVREGIAFRPASKTFTVQKGISSKKLVDYILGTYQAIDEDTNKAASNVKYVMGRNDGGYLMIDSKTAEIKFVKNMNRDSTFIVNKTITAEVLAIDEYTGKTSTGTVYVRVPDFNDNCPTAVLEKDAVCSSSPSVVVSARTLNNRYTGPYTFALEDQPVKLPAVWSITTLNATSALLRAQEQIPPGVYHISLVLTDSQNNRCEMPRSLTLEVCQCDNRGICGTSYPTTSPGTRYGRPHSGR
Consider B1, for which the binding result in experiment [1] and in experiment [4] was “binds” throughout.

B2: recombinant Fc-construct of the Dsg2 extracellular domain, Q14126 50-609 (Fc fusion)
chain: AWITAPVALREGEDLSKKNPIAKIHSDLAEERGLKITYKYTGKGITEPPFGIFVFNKDTGELNVTSILDREETPFFLLTGYALDARGNNVEKPLELRIKVLDINDNEPVFTQDVFVGSVEELSAAHTLVMKINATDADEPNTLNSKISYRIVSLEPAYPPVFYLNKDTGEIYTTSVTLDREEHSSYTLTVEARDGNGEVTDKPVKQAQVQIRILDVNDNIPVVENKVLEGMVEENQVNVEVTRIKVFDADEIGSDNWLANFTFASGNEGGYFHIETDAQTNEGIVTLIKEVDYEEMKNLDFSVIVANKAAFHKSIRSKYKPTPIPIKVKVKNVKEGIHFKSSVISIYVSESMDRSSKGQIIGNFQAFDEDTGLPAHARYVKLEDRDNWISVDSVTSEIKLAKLPDFESRYVQNGTYTVKIVAISEDYPRKTITGTVLINVEDINDNCPTLIEPVQTICHDAEYVNVTAEDLDGHPNSGPFSFSVIDKPPGMAEKWKIARQESTSVLLQQSEKKLGRSEIQFLISDNQGFSCPEKQVLTLTVCECLHGSGCREAQHDSYVG
For the molecule B2, the binding result in experiment [5] is reported as “binds”.

B3: desmoglein 3 (Dsg3), endogenous in human keratinocytes (HaCaT) (protein, UniProt P32926 50-999)
chain: EWVKFAKPCREGEDNSKRNPIAKITSDYQATQKITYRISGVGIDQPPFGIFVVDKNTGDINITAIVDREETPSFLITCRALNAQGLDVEKPLILTVKILDINDNPPVFSQQIFMGEIEENSASNSLVMILNATDADEPNHLNSKIAFKIVSQEPAGTPMFLLSRNTGEVRTLTNSLDREQASSYRLVVSGADKDGEGLSTQCECNIKVKDVNDNFPMFRDSQYSARIEENILSSELLRFQVTDLDEEYTDNWLAVYFFTSGNEGNWFEIQTDPRTNEGILKVVKALDYEQLQSVKLSIAVKNKAEFHQSVISRYRVQSTPVTIQVINVREGIAFRPASKTFTVQKGISSKKLVDYILGTYQAIDEDTNKAASNVKYVMGRNDGGYLMIDSKTAEIKFVKNMNRDSTFIVNKTITAEVLAIDEYTGKTSTGTVYVRVPDFNDNCPTAVLEKDAVCSSSPSVVVSARTLNNRYTGPYTFALEDQPVKLPAVWSITTLNATSALLRAQEQIPPGVYHISLVLTDSQNNRCEMPRSLTLEVCQCDNRGICGTSYPTTSPGTRYGRPHSGRLGPAAIGLLLLGLLLLLLAPLLLLTCDCGAGSTGGVTGGFIPVPDGSEGTIHQWGIEGAHPEDKEITNICVPPVTANGADFMESSEVCTNTYARGTAVEGTSGMEMTTKLGAATESGGAAGFATGTVSGAASGFGAATGVGICSSGQSGTMRTRHSTGGTNKDYADGAISMNFLDSYFSQKAFACAEEDDGQEANDCLLIYDNEGADATGSPVGSVGCCSFIADDLDDSFLDSLGPKFKKLAEISLGVDGEGKEVQPPSKDSGYGIESCGHPIEVQQTGFVKCQTLSGSQGASALSTSGSVQPAVSIPDPLQHGNYLVTETYSASGSLVQPSTAGFDPLLTQNVIVTERVICPISSVPGNLAGPTQLRGSHTMLCTEDPCSRLI
Regarding B3, the binding entry in experiment [6] is reported as “binds”.
